Experimental findings from PubChem BioAssay AID256 (DTP/NCI, 2004) are described below.

The list does not hold the whole screen: it gathers tests that were run many times, whatever their T/C, doses with no T/C, and many T/C values between a quarter and a half above the control. Further doses and runs are listed elsewhere. T/C: endpoint of the treated group in % of that of the vehicle group. Some doses have a count of surviving animals in place of a T/C: the source holds a T/C of zero for them, seemingly a mark for toxic or unscored doses. Some survivor counts are full or nearly so, which does not show that the dose was tolerated: survival well below the control is almost never listed, so the zero probably covers shortened survival too. Counts of survivors are from the toxicity check (mostly the fifth day) where no day follows; animals may have died later. Schedule codes are those of the source, taken here to give the interval after Q, in days (D) or hours (H), and the number of doses after X. Some entries were tested several times; the values are given in rising order. Where survival is the endpoint, this PubChem deposit counts one and a half times the control or more as active, and values a quarter to a half above the control carry no call in these data; other NCI protocols may use other cut-offs. Some T/C values carry the count of animals alive at the toxicity check (mostly the fifth day); where none is given, no animal had died by that day.

For the test, the system named is CD2F1 mice, L1210 leukemia ip, survival T/C. The test can be described thus: NCI In Vivo Anticancer Drug Screen. Data for tumor model L1210 Leukemia (intraperitoneal) in CD2F1 (CDF1) mice. As to conditions: higher T/C = longer survival. The method, then:
The antitumor activity of compounds was measured in mice bearing transplantable tumors. Survival or tumor size were measured and the results are expressed as the measurement made in the treated group (T) divided by the measurement made in the vehicle treated control group (C). The tumor model used in this assay is L1210 Leukemia (intraperitoneal) in CD2F1 (CDF1) mice

[1] abbreviates: T/C endpoint: mean survival time, dose: 200.0 mg/kg/injection, schedule: Q04DX003 (ip), vehicle: saline with Tween-80.
Where [2] appears, read: T/C endpoint: mean survival time, dose: 400.0 mg/kg/injection, schedule: Q04DX003 (ip), vehicle: saline with Tween-80.
The mark [3] stands for this setting: T/C endpoint: mean survival time, dose: 200.0 mg/kg/injection, schedule: Q01DX001 (ip), vehicle: saline with Tween-80.
Setting [4] is: T/C endpoint: mean survival time, dose: 400.0 mg/kg/injection, schedule: Q04DX002 (ip), vehicle: saline with Tween-80.
[5] abbreviates: T/C endpoint: mean survival time, dose: 200.0 mg/kg/injection, schedule: Q01DX009 (ip), vehicle: saline.
[6] abbreviates: T/C endpoint: mean survival time, dose: 200.0 mg/kg/injection, schedule: Q01DX009 (ip), vehicle: saline with Tween-80.
The mark [7] stands for this setting: T/C endpoint: mean survival time, dose: 400.0 mg/kg/injection, schedule: Q01DX009 (ip), vehicle: saline.
The mark [8] stands for this setting: T/C endpoint: mean survival time, dose: 400.0 mg/kg/injection, schedule: Q01DX009 (ip), vehicle: Klucel (hydroxypropylcellulose) (HPC).

With `O=C1C(=Cc2ccc([N+](=O)[O-])cc2)C(=O)c2ccccc21`, the survivor count by setting is: (T/C endpoint: mean survival time, dose: 100.0 mg/kg/injection, schedule: Q04DX003 (ip), vehicle: Klucel (hydroxypropylcellulose) (HPC)) 6 of 6; (T/C endpoint: mean survival time, dose: 200.0 mg/kg/injection, schedule: Q04DX003 (ip), vehicle: Klucel (hydroxypropylcellulose) (HPC)) 6 of 6; (T/C endpoint: mean survival time, dose: 400.0 mg/kg/injection, schedule: Q04DX003 (ip), vehicle: Klucel (hydroxypropylcellulose) (HPC)) 6 of 6.

Take `O=c1c(-c2ccccc2)c1-c1ccccc1`: the survivor count reads like this: under setting [1], 5 of 6; under setting [2], 3 of 6.

On to `Nc1nc(-c2cccc([N+](=O)[O-])c2)c(N=Nc2ccccc2[N+](=O)[O-])s1`, for which the survivor count under setting [3] was 6 of 6.

Consider `O=C(O)c1cc(F)ccc1Cl`, for which the survivor count under setting [4] was 2 of 3.

With `c1ccc(C2=C(c3ccccc3)OC(c3ccccc3)=C(c3ccccc3)O2)cc1`, the survivor count under setting [3] is on record as 6 of 6.

Take `CC(C)OC(=O)Oc1cccs1`: the survivor count (T/C endpoint: mean survival time, dose: 100.0 mg/kg/injection, schedule: Q04DX003 (ip), vehicle: saline with Tween-80) was 6 of 6; the survivor count under setting [1] is given as 0 of 6; the survivor count under setting [2] is on record as 0 of 6.

Consider `C1CNCOC1`, for which the T/C under setting [5] was 130 % of control. Further, the survivor count (T/C endpoint: median survival time, dose: 200.0 mg/kg/injection, schedule: Q01DX009 (ip), vehicle: saline) is given as 1 of 6.

As for `C=C1C(C)C2C(Cc3ccccc3)NC(=O)C23C(OC(C)=O)/C=C/C(C)(O)CC(C)C/C=C/C3C1O` (stereo not given), the survivor count (T/C endpoint: mean survival time, dose: 12000.0 micrograms/kg/injection, schedule: Q01DX009 (ip), vehicle: Klucel (hydroxypropylcellulose) (HPC)) is reported as 4 of 6.

`O=Cc1ccc(O)c(O)c1`: the T/C under setting [6] was 141 % of control; the T/C (T/C endpoint: mean survival time, dose: 400.0 mg/kg/injection, schedule: Q01DX009 (ip), vehicle: saline with Tween-80) was 128 % of control; the T/C under setting [7] was 138 % of control [5 of 6 alive]. For the same compound, under “T/C endpoint: mean survival time, dose: 800.0 mg/kg/injection, schedule: Q01DX009 (ip), vehicle: saline with Tween-80”, the survivor count was 1 of 6.

On to `CCOC(=O)CNC(=O)Sc1ccc(C(C)(C)C)cc1`, for which, under setting [8], the survivor count is reported as 3 of 6.

With `O=C(O)C(O)C(O)C(=O)O.[Cu+2]` (stereo not given), the survivor count is on record as 0 of 6 (T/C endpoint: mean survival time, dose: 100.0 mg/kg/injection, schedule: Q01DX001 (ip), vehicle: saline); 0 of 6 (T/C endpoint: mean survival time, dose: 200.0 mg/kg/injection, schedule: Q01DX001 (ip), vehicle: saline); 0 of 6 (T/C endpoint: mean survival time, dose: 400.0 mg/kg/injection, schedule: Q01DX001 (ip), vehicle: saline).

On to `COc1cccc2c1C(=O)c1c(O)c3c(c(O)c1C2=O)C[C@@](O)(C(=O)CO)C[C@@H]3OC1CC(NC=O)C(O)C(C)O1` (stereo not given in full), for which, for the setting “T/C endpoint: mean survival time, dose: 3.13 mg/kg/injection, schedule: Q04DX003 (ip), vehicle: water”, the survivor count is recorded as 6 of 6.

On to `CCOC(=O)c1ccc(NC(=O)Nc2cccc(NC(C)=O)c2)cc1`, for which the survivor count under setting [4] is 1 of 3 and 2 of 6.

With `O=[N+]([O-])c1ccc(N(CCO)CCO)c2c1no[n+]2[O-]`, the survivor count reads like this: (T/C endpoint: median survival time, dose: 100.0 mg/kg/injection, schedule: Q01DX009 (ip), vehicle: saline with Tween-80) 3 of 6; (T/C endpoint: median survival time, dose: 200.0 mg/kg/injection, schedule: Q01DX009 (ip), vehicle: saline with Tween-80) 0 of 6.

Consider `O=C(O)c1ccccc1C(=O)c1cccc2ccccc12`, for which, under setting [2], the survivor count is recorded as 1 of 6.

Regarding `O=C(Nc1cc(Cl)ccc1Cl)c1ccc(Cl)cc1Cl`, the survivor count under setting [2] was 5 of 6.

`Cc1ccc(S(=O)(=O)Nc2ccc(Cl)c(Cl)c2)cc1`: under setting [8], the survivor count was 6 of 6.

With `c1ccc(P(CCNCCP(c2ccccc2)c2ccccc2)c2ccccc2)cc1`, the survivor count (T/C endpoint: median survival time, dose: 400.0 mg/kg/injection, schedule: Q01DX009 (ip), vehicle: saline with Tween-80) is recorded as 3 of 6.

For the compound `NC(=S)N/N=C/c1ccc(OC(F)(F)F)cn1`, for the setting “T/C endpoint: mean survival time, dose: 200.0 mg/kg/injection, schedule: Q04DX002 (ip), vehicle: other”, the survivor count is on record as 2 of 3.

As to `COc1ccc2c(c1O)-c1c(OC)c(OC)cc3c1C(C2)N(C)CC3` (stereo not given), the survivor count runs as follows: (T/C endpoint: mean survival time, dose: 100.0 mg/kg/injection, schedule: Q01DX009 (ip), vehicle: saline) 2 of 6; under setting [5], 1 of 6; under setting [7], 0 of 6.

Consider `CCC[CH2][Sn]1([CH2]CCC)[N](S(=O)(=O)c2ccc(C)cc2)c2ccccc2[N]1S(=O)(=O)c1ccc(C)cc1`, for which the survivor count is, setting by setting: (T/C endpoint: mean survival time, dose: 12.5 mg/kg/injection, schedule: Q04DX002 (ip), vehicle: saline with Tween-80) 0 of 3; (T/C endpoint: mean survival time, dose: 25.0 mg/kg/injection, schedule: Q04DX002 (ip), vehicle: saline with Tween-80) 1 of 3; (T/C endpoint: mean survival time, dose: 50.0 mg/kg/injection, schedule: Q04DX002 (ip), vehicle: saline with Tween-80) 0 of 3; (T/C endpoint: mean survival time, dose: 100.0 mg/kg/injection, schedule: Q04DX002 (ip), vehicle: saline with Tween-80) 0 of 3; (T/C endpoint: mean survival time, dose: 200.0 mg/kg/injection, schedule: Q04DX002 (ip), vehicle: saline with Tween-80) 1 of 3; under setting [4], 1 of 3.

Consider `O=C1NC(=O)C(=C/C=C/c2ccccc2)C(=O)N1`, for which the survivor count reads like this: (T/C endpoint: mean survival time, dose: 100.0 mg/kg/injection, schedule: Q01DX009 (ip), vehicle: saline with Tween-80) 3 of 3; under setting [6], 1 of 3.

As to `CC(=O)N/N=C\C1=CCC=C(Br)S1`, the survivor count (T/C endpoint: mean survival time, dose: 400.0 mg/kg/injection, schedule: Q01DX001 (ip), vehicle: saline with Tween-80) is on record as 3 of 6.

In the case of `COc1ccc(NC(=O)Nc2cc(Cl)c(OC)cc2OC)cc1`, the survivor count under setting [4] is listed as 3 of 3.

As for `CN(C)CCC(=O)/C=C\c1ccccc1`, the survivor count reads like this: (T/C endpoint: mean survival time, dose: 200.0 mg/kg/injection, schedule: Q04DX003 (ip), vehicle: saline) 0 of 6; (T/C endpoint: mean survival time, dose: 400.0 mg/kg/injection, schedule: Q04DX003 (ip), vehicle: saline) 0 of 6.

Turning to `CCCC(=O)O.CCCC(=O)O.CCCC(=O)O.CCCC(=O)O.O=P1(N(CCCl)CCCl)NCCCO1.O=P1(N(CCCl)CCCl)NCCCO1.[Rh].[Rh]` (stereo not given), the survivor count by setting is: (T/C endpoint: mean survival time, dose: 2.0 mg/kg/injection, schedule: Q01DX001 (ip), vehicle: olive oil, sesame oil, peanut oil) 0 of 6; (T/C endpoint: mean survival time, dose: 4.0 mg/kg/injection, schedule: Q01DX001 (ip), vehicle: olive oil, sesame oil, peanut oil) 1 of 6; (T/C endpoint: mean survival time, dose: 8.0 mg/kg/injection, schedule: Q01DX001 (ip), vehicle: olive oil, sesame oil, peanut oil) 0 of 6; (T/C endpoint: mean survival time, dose: 16.0 mg/kg/injection, schedule: Q01DX001 (ip), vehicle: olive oil, sesame oil, peanut oil) 0 of 6; (T/C endpoint: mean survival time, dose: 31.25 mg/kg/injection, schedule: Q01DX001 (ip), vehicle: olive oil, sesame oil, peanut oil) 0 of 6; (T/C endpoint: mean survival time, dose: 62.5 mg/kg/injection, schedule: Q01DX001 (ip), vehicle: olive oil, sesame oil, peanut oil) 0 of 6. Besides, the survivor count is on record as 0 of 6 (T/C endpoint: mean survival time, dose: 125.0 mg/kg/injection, schedule: Q01DX001 (ip), vehicle: olive oil, sesame oil, peanut oil); 0 of 6 (T/C endpoint: mean survival time, dose: 250.0 mg/kg/injection, schedule: Q01DX001 (ip), vehicle: olive oil, sesame oil, peanut oil); 0 of 6 (T/C endpoint: mean survival time, dose: 500.0 mg/kg/injection, schedule: Q01DX001 (ip), vehicle: olive oil, sesame oil, peanut oil).
